Measured values taken from patent US10563263B2, “Genetic polymorphisms associated with statin response and cardiovascular diseases, methods of detection and uses thereof” (CELERA CORPORATION, priority 2010, dated 2020).
The source gives many values for each of these; only a part stands here.

Tested on: revascularization, unstable angina requiring hospitalization, MI, all causes of death, or stroke
Test: PROVE IT-TIMI 22: SNP by treatment interaction (high-dose atorvastatin vs standard-dose pravastatin), logistic regression (synergy index), primary composite endpoint
Assay type: in vivo, human

Structure (SMILES): CC(C)c1c(C(=O)Nc2ccccc2)c(-c2ccccc2)c(-c2ccc(F)cc2)n1CC[C@@H](O)C[C@@H](O)CC(=O)O [Atorvastatin, atorvastatin]
- OR (rs11749272 allele T, DOM, Imputed, atorvastatin vs pravastatin): 0.593
- OR (rs11853619 allele C, REC, Imputed, atorvastatin vs pravastatin): 1.946
- OR (rs11856780 allele A, REC, Imputed, atorvastatin vs pravastatin): 1.946
- OR (rs11901899 allele A DOM Imputed): 1.452
- OR (rs11901899 allele A, DOM, Imputed, atorvastatin vs pravastatin): 1.452
- OR (rs11903290 allele C, REC, Imputed, atorvastatin vs pravastatin): 2.698
- OR (rs11909480 allele G, ADD, Imputed, atorvastatin vs pravastatin): 0.4305
- OR (rs11909480 allele G, DOM, Imputed, atorvastatin vs pravastatin): 0.3714
- OR (rs11910289 allele T, ADD, Imputed, atorvastatin vs pravastatin): 1.815
- OR (rs11910289 allele T, DOM, Imputed, atorvastatin vs pravastatin): 1.911
- OR (rs11926319 allele G ADD Imputed): 0.9777
- OR (rs11926319 allele G DOM Imputed): 1.007
- OR (rs11926319 allele G, DOM, Imputed, atorvastatin vs pravastatin): 1.007
- OR (rs11933744 allele T, REC, Imputed, atorvastatin vs pravastatin): 0.8701
- OR (rs11934919 allele C, REC, Imputed, atorvastatin vs pravastatin): 0.8636
- OR (rs11934957 allele C, REC, Imputed, atorvastatin vs pravastatin): 0.8636
- OR (rs11956952 allele C DOM Imputed): 0.6491
- OR (rs11959206 allele A, REC, Imputed, atorvastatin vs pravastatin): 1.201
- OR (rs12025826 allele G DOM Imputed): 1.459
- OR (rs12038613 allele C, REC, Imputed, atorvastatin vs pravastatin): 0.8998
- OR (rs12151417 allele T, DOM, Imputed, atorvastatin vs pravastatin): 1.517
- OR (rs12153185 allele T DOM Imputed): 0.5728
- OR (rs12153185 allele T, DOM, Imputed, atorvastatin vs pravastatin): 0.5728
- OR (rs12182651 allele T ADD Imputed): 0.982
- OR (rs12182651 allele T DOM Imputed): 0.9744
- OR (rs12182651 allele T, DOM, Imputed, atorvastatin vs pravastatin): 0.9744
- OR (rs12193568 allele G DOM Imputed): 1.618
- OR (rs12235345 allele C, DOM, Imputed, atorvastatin vs pravastatin): 1.768
- OR (rs12264914 allele C DOM Imputed): 0.4742
- OR (rs12307767 allele C DOM Imputed): 0.6033
- OR (rs12324786 allele T, REC, Imputed, atorvastatin vs pravastatin): 2.198
- OR (rs12336958 allele G, DOM, Imputed, atorvastatin vs pravastatin): 0.7989
- OR (rs12407412 allele C ADD Imputed): 1.439
- OR (rs12407412 allele C DOM Imputed): 1.57
- OR (rs12407412 allele C, ADD, Imputed, atorvastatin vs pravastatin): 1.439
- OR (rs12407412 allele C, DOM, Imputed, atorvastatin vs pravastatin): 1.57
- OR (rs12418971 allele C, REC, Imputed, atorvastatin vs pravastatin): 3.381
- OR (rs12420184 allele G DOM Imputed): 1.429
- OR (rs12420184 allele G, DOM, Imputed, atorvastatin vs pravastatin): 1.429
- OR (rs12422750 allele A DOM Imputed): 0.5888
- OR (rs12433968 allele T, DOM, Imputed, atorvastatin vs pravastatin): 1.059
- OR (rs12445477 allele A, DOM, Imputed, atorvastatin vs pravastatin): 0.7231
- OR (rs12446951 allele A ADD Imputed): 1.549
- OR (rs12446951 allele A DOM Imputed): 1.63
- OR (rs12447191 allele T, ADD, Genotyped, atorvastatin vs pravastatin): 0.7641
- OR (rs12447191 allele T, DOM, Genotyped, atorvastatin vs pravastatin): 0.6902
- OR (rs12457400 allele G DOM Imputed): 0.578
- OR (rs12465349 allele A, REC, Imputed, atorvastatin vs pravastatin): 1.865
- OR (rs12515472 allele A, DOM, Imputed, atorvastatin vs pravastatin): 1.913
- OR (rs12521291 allele G ADD Imputed): 1.07
- OR (rs12526849 allele T ADD Imputed): 1.012
- OR (rs12548906 allele G, ADD, Imputed, atorvastatin vs pravastatin): 1.763
- OR (rs12596240 allele G, DOM, Imputed, atorvastatin vs pravastatin): 0.9009
- OR (rs12618781 allele A, DOM, Imputed, atorvastatin vs pravastatin): 1.082
- OR (rs12678600 allele A DOM Imputed): 0.7992
- OR (rs12678600 allele A, DOM, Imputed, atorvastatin vs pravastatin): 0.7992
- OR (rs12692229 allele T, ADD, Imputed, atorvastatin vs pravastatin): 1.608
- OR (rs12713324 allele T, DOM, Imputed, atorvastatin vs pravastatin): 1.501
- OR (rs12719415 allele T DOM Imputed): 0.5934
- OR (rs12719415 allele T, DOM, Imputed, atorvastatin vs pravastatin): 0.5934
- OR (rs12820589 allele G, ADD, Imputed, atorvastatin vs pravastatin): 0.882
- OR (rs12820589 allele G, DOM, Imputed, atorvastatin vs pravastatin): 0.926
- OR (rs12831292 allele G DOM Imputed): 0.7047
- OR (rs12831292 allele G, ADD, Imputed, atorvastatin vs pravastatin): 0.7739
- OR (rs12831292 allele G, DOM, Imputed, atorvastatin vs pravastatin): 0.7047
- OR (rs12923993 allele C DOM Imputed): 2.011
- OR (rs12936964 allele T DOM Imputed): 1.123
- OR (rs12960663 allele G ADD Imputed): 0.797
- OR (rs13012636 allele G, REC, Imputed, atorvastatin vs pravastatin): 2.717
- OR (rs13038146 allele C ADD Imputed): 1.389
- OR (rs13038146 allele C, ADD, Imputed, atorvastatin vs pravastatin): 1.389
- OR (rs13038146 allele C, REC, Imputed, atorvastatin vs pravastatin): 2.069
- OR (rs13089860 allele A, DOM, Imputed, atorvastatin vs pravastatin): 0.5987
- OR (rs13102419 allele T, REC, Imputed, atorvastatin vs pravastatin): 1.104
- OR (rs13172910 allele A DOM Imputed): 0.6398
- OR (rs13194907 allele A ADD Imputed): 1.091
- OR (rs13194907 allele A, ADD, Imputed, atorvastatin vs pravastatin): 1.091
- OR (rs13195745 allele A ADD Imputed): 1.091
- OR (rs13195745 allele A, ADD, Imputed, atorvastatin vs pravastatin): 1.091
- OR (rs13265054 allele T DOM Imputed): 0.7541
- OR (rs13265054 allele T, DOM, Imputed, atorvastatin vs pravastatin): 0.7541
- OR (rs13282131 allele C, ADD, Imputed, atorvastatin vs pravastatin): 1.295
- OR (rs13282131 allele C, REC, Imputed, atorvastatin vs pravastatin): 1.884
- OR (rs13353526 allele C DOM Imputed): 0.8239
- OR (rs13387284 allele A, DOM, Imputed, atorvastatin vs pravastatin): 1.094
- OR (rs13401462 allele C, DOM, Imputed, atorvastatin vs pravastatin): 0.8697
- OR (rs13409045 allele T, ADD, Imputed, atorvastatin vs pravastatin): 1.009
- OR (rs16877387 allele C REC Imputed): 1.186
- OR (rs16938626, allele G, DOM, Imputed, PROVE-IT, vs pravastatin): 0.7689
- OR (rs16938626 allele G DOM Imputed): 0.7689
- OR (rs16964300, allele G, ADD, Imputed, PROVE-IT, vs pravastatin): 0.7656
- OR (rs16964300, allele G, DOM, Imputed, PROVE-IT, vs pravastatin): 0.6717
- OR (rs16986282, allele G, DOM, Imputed, PROVE-IT, vs pravastatin): 0.3565
- OR (rs16998821 allele C DOM Imputed): 1.138
- OR (rs17007620, allele G, ADD, Imputed, PROVE-IT, vs pravastatin): 1.033
- OR (rs17007620, allele G, DOM, Imputed, PROVE-IT, vs pravastatin): 1.127
- OR (rs17007620 allele G ADD Imputed): 1.033
- OR (rs17007620 allele G DOM Imputed): 1.127
- OR (rs17014326, allele G, DOM, Imputed, PROVE-IT, vs pravastatin): 1.215
- OR (rs17023290 allele C DOM Imputed): 0.8286
- OR (rs17047957, allele C, DOM, Imputed, PROVE-IT, vs pravastatin): 1.801
- OR (rs17047957 allele C DOM Imputed): 1.801
- OR (rs17073341, allele A, ADD, Imputed, PROVE-IT, vs pravastatin): 2.051
- OR (rs17073341, allele A, DOM, Imputed, PROVE-IT, vs pravastatin): 2.316
- OR (rs17076972 allele C (A1), REC, Imputed, atorvastatin vs pravastatin): 0.9776
- OR (rs17076972 allele C ADD Imputed): 1.031
- OR (rs17138702, allele G, ADD, Imputed, PROVE-IT, vs pravastatin): 1.127
- OR (rs17189710, allele T, ADD, Imputed, PROVE-IT, vs pravastatin): 1.382
- OR (rs17189710, allele T, REC, Imputed, PROVE-IT, vs pravastatin): 2.127
- OR (rs17189710 allele T (A1), ADD, Imputed, atorvastatin vs pravastatin): 1.382
- OR (rs17196143 allele A (A1), ADD, Imputed, atorvastatin vs pravastatin): 0.7066
- OR (rs17310176, allele T, ADD, Imputed, PROVE-IT, vs pravastatin): 0.6446
- OR (rs17310176, allele T, DOM, Imputed, PROVE-IT, vs pravastatin): 0.6022
- OR (rs17353809 allele G (A1), ADD, Imputed, atorvastatin vs pravastatin): 0.9859
- OR (rs17358860, allele A, DOM, Imputed, PROVE-IT, vs pravastatin): 0.5513
- OR (rs17370541, allele T, REC, Imputed, PROVE-IT, vs pravastatin): 1.119
- OR (rs17446418 allele G (A1), DOM, Imputed, atorvastatin vs pravastatin): 1.044
- OR (rs17530747, allele T, DOM, Imputed, PROVE-IT, vs pravastatin): 1.033
- OR (rs17530747 allele T (A1), DOM, Imputed, atorvastatin vs pravastatin): 1.033
- OR (rs17604285 allele C (A1), ADD, Imputed, atorvastatin vs pravastatin): 0.9476
- OR (rs17604285 allele C (A1), DOM, Imputed, atorvastatin vs pravastatin): 0.9476
- OR (rs17649114, allele C, DOM, Imputed, PROVE-IT, vs pravastatin): 1.776
- OR (rs17662322 allele T (A1), DOM, Imputed, atorvastatin vs pravastatin): 0.7561
- OR (rs17766172, allele A, REC, Imputed, PROVE-IT, vs pravastatin): 0.5776
- OR (rs17769826 allele T (A1), ADD, Imputed, atorvastatin vs pravastatin): 0.9859
- OR (rs17821641 allele T (A1), ADD, Imputed, atorvastatin vs pravastatin): 1.021
- OR (rs72746987, allele A, DOM, Genotyped, atorvastatin vs pravastatin): 1.033
- OR (rs77638540, allele T, DOM, Genotyped, atorvastatin vs pravastatin): 0.3879
